1 sequence from article doi:10.1101/2021.04.01.437949 (bioRxiv, 2021) can be followed below.

Amino acid sequences for entries named in this document (tags omitted).
UniProt P22147, whole entry, stated change not applied: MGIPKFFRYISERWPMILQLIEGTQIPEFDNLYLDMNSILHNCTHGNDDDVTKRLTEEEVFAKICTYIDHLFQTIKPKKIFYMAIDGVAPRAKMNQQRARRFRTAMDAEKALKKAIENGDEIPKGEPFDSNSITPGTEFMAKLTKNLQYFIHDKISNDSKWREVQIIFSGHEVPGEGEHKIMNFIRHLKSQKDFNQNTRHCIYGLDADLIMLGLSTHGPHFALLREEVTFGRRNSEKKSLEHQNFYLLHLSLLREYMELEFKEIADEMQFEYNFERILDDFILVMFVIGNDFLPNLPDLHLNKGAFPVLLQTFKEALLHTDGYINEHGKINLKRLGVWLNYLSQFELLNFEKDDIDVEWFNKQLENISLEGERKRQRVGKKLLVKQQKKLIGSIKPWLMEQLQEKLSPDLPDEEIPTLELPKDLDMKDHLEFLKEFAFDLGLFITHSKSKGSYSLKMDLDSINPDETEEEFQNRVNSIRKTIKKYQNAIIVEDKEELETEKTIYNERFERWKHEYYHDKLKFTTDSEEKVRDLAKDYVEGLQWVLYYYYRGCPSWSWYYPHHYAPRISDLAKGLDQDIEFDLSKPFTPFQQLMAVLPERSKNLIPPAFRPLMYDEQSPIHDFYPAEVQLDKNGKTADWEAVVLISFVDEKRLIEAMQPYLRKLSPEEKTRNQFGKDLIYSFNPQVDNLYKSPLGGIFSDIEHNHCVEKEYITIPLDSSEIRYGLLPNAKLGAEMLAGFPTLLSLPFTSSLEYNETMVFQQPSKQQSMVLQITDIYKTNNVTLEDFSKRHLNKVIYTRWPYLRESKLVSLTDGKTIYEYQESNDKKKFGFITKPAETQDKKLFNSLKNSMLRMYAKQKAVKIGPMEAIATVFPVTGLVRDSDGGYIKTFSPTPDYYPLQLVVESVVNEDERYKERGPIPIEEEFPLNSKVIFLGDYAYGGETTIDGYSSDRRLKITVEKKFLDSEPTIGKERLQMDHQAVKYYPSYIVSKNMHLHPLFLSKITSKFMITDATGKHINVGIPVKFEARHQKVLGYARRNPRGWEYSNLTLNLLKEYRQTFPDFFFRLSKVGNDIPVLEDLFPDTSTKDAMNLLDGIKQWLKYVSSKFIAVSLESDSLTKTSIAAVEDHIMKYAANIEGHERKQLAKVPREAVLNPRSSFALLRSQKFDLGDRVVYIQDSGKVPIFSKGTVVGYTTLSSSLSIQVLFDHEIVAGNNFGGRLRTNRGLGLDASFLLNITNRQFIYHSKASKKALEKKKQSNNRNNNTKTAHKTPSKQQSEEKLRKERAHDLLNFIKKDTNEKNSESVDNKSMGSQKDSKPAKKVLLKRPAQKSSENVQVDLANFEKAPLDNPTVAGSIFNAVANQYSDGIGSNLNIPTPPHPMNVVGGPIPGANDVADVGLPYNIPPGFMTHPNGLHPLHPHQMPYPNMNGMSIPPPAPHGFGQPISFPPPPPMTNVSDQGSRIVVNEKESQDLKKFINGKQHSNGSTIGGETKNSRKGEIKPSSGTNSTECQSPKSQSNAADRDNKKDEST

For at least one entry, the source does not settle the construct or the ends of the probe.

This data set deals with Xrn1ΔNLS2-FLAG (Saccharomyces cerevisiae) (UniProt P22147). As to the kind of experiment: competition with a labelled probe. The settings on record: 2 mM EDTA, RNA weakened interaction with Kap120.

Turning to “AUGUACAGUCCGACGAACACGGAGUCGACCCGCAACGCGA [40 nt competitor RNA]”, the binding result is listed as “binds”.
